# Library screening results

From ChEMBL document CHEMBL3988442, “University of Dundee, Small-Polar-MMV Screening Library” (2021).

Results are given as percent effect.
The controls that fix the scale are not given in the record; negative values are as filed.
Compounds were drawn at random from those tested, without regard to their results.
Two or more numbers in one place are separate tests of the same structure; such repeats can differ widely.

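Viability assay of Plasmodium falciparum sporozoites; the read-out is not stated. The concentration is filed as 10 mM, unlikely as a test dose, so the dose is not known. The record gives no direction; compounds that gave an IC50 in retests scored well above the rest, so higher reads as lower viability. Strong results were mostly tested again. Size under these conditions: about 34,000 compounds, about 280 of them at 50% or above in at least one test.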

COc1ccccc1CC(=O)N1CCCC(n2nc(C)cc2C)C1 (centres unmarked) read -9.128%.
CN(C)S(=O)(=O)N1CCOC(c2cccc(-c3cncnc3)n2)C1 (centres unmarked) read 4.876%.
Cc1ccc(C(=O)NCCCNS(C)(=O)=O)cc1C read -3.671%.
CC(=O)Nc1ccc2c(c1)CN(C(=O)c1ccco1)CC2 read 22.29%.
CC(C)(N)C(=O)N1CCCC(C(=O)c2ccc(C(C)(C)C)cc2)C1 (centres unmarked) read -9.256%.
Fc1cccc(-n2ccc(CN3CCCC3Cn3cccn3)n2)c1 (centres unmarked) read -8.661% & -3.648% & 3.764%.
COC(=O)c1ccc(NCc2csc(C)n2)cc1Cl read -21.34%.
Cc1cccc(-c2nc(CNC3CCc4nc(C)nn4C3)no2)c1 (centres unmarked) read -2.452%.
Cc1nn(CC(=O)n2cccn2)c(C)c1I read 2.967%.
COc1ccc(CN(C)[C@@H]2CN(C(=O)c3cccs3)C[C@H]2O)cc1 read -12.2%.
COc1cc(CCC(=O)NC2CCN(C)CC2)ccc1OCC(F)(F)F read -12.66%.
CC(C)Nc1nc(N2CCCC2)nc2c1CN(C(C)C)CC2 read -118% & -122.3% & 28.46%.
CC(C)Oc1ccc(CN2CCC(Cc3nnc(CO)n3C)CC2)cc1 read -10.77%.
O=C(c1sccc1C1CC1)N1CCCN(c2cccnn2)CC1 read -5.606%.
CCOc1ccnc(N2CCCN(C(=O)c3cc[nH]c3C)CC2)n1 read 10.81%.
O=C(NCc1ccco1)N1CCN(Cc2ccc3c(c2)CCO3)CC1 read -4.937%.
Cc1ccc(CNC(=O)NC(C)CN2CCOCC2)s1 (centres unmarked) read -7.353%.
CN(Cc1nccn1CC(F)(F)F)C(=O)c1cccc(N(C)C)c1 read 9.937%.
CNc1cc(CNC(=O)c2ccccn2)nc(-c2ccncc2)n1 read -4.621%.
COc1cc(-c2ccc(F)c3c2OC(CN)C3)cc(OC)c1OC (centres unmarked) read 7.544%.
Cn1ccc(C(=O)N2CCCC(Cc3cccc4cccnc34)C2)n1 (centres unmarked) read -2.008%.
COc1cc(CCC(C)O)c(OC)c2c1OCO2 (centres unmarked) read -3.289%.
[H][C@@]12COC[C@]1(COCc1cccc(C)n1)CN(c1ncccn1)C2 read -8.205%.
Cc1cnn(CCNCc2ccc(C#N)cc2)c1 read 4.379%.
CN(Cc1ccccc1)CC(O)Cn1cnc2sccc2c1=O (centres unmarked) read 7.457%.
Cc1cc(C)n(-c2ccc(C(=O)N3CCCC3c3cnn(C)c3)cc2)n1 (centres unmarked) read 12.4%.
CCn1ncc2c1C(COC)CN(Cc1ccc(C)o1)C2 (centres unmarked) read 3.07%.
O=C(O)C(F)(F)F.[H][C@]12C[C@@H](Cn3cncn3)N(CC3CC3)[C@@]1([H])CCN(S(C)(=O)=O)C2 read 0.2181%.
NC(=O)N1CCC2(CC1)CN(c1ccsc1)C(=O)CO2 read -1.269%.
[H][C@@]12C[C@@H](NC(=O)C(C)(C)C)[C@]1([H])CN(S(=O)(=O)c1ccc(C)cc1)C2 read -18.84%.
Cc1ccccc1-c1cc(NC(=O)CC(C)C)n(CCO)n1 read -3.269%.
COC1CN(C(=O)Cc2cccs2)CCC(=O)N(C)c2ccccc21 (centres unmarked) read -23.16%.
O=C(O)C(F)(F)F.O=C(O)C(F)(F)F.[H][C@]12C[C@@H](CN(C)C)N(CC3CC3)[C@@]1([H])CCN(C(=O)c1cnoc1C)C2 read -4.195%.
CSCCN(C)Cc1ccc(F)cc1C#N read -18.51%.
Cc1ccc(OCCC(=O)NC2CCc3nc(C)cn3C2)cc1 (centres unmarked) read -3.269%.